Test results published in publication PMC12040169 (PLOS Biology, 2025).
The other results are listed elsewhere or left out.

Each compound was assayed on T1, CTL2-GFP (C. trachomatis L2/434/Bu, GFP-expressing). Settings: bulk GFP, single well; 28.5 h, 10 µM; inhibitor.
T1 construct: L2/434/Bu, GFP-expressing
Design: species or system HeLa; Intracellular C. trachomatis growth in HeLa cells, bulk GFP fluorescence relative to DMSO

Row | SMILES | % of control remaining [%]
1 | Cn1c(CN2CCN(C(=O)NC3CCCCC3)CC2)nc2cc([N+](=O)[O-])ccc21 [CBK268266] | 88.622
2 | O=C(CC1CCN(C(=O)Cc2ccccc2)CC1)Nc1nc2c(s1)CCCCC2 [CBK286001] | 116.228
3 | c1cncc(CNc2nccnc2-c2ccsc2)c1 [CBK089314] | 75.8695
4 | N/C(CS(=O)(=O)Cc1ccc(F)cc1)=N/O [CBK010956] | 124.566
5 | COc1ccccc1NC(=O)NC(=O)C1CCN(C)CC1 [CBK034830] | 145.438
6 | CC1(C)COC(=O)N1C1CCN(C(=O)CNC(=O)c2cccs2)CC1 [CBK044501] | 108.513
7 | c1ccc(COc2ccccc2-c2cc(N3CCN(c4ccccn4)CC3)ncn2)cc1 [CBK037793] | 157.944
8 | O=S(=O)(Nc1cc(OC2CCNCC2)c2occc2c1)c1c(Cl)cccc1Cl [CBK074989C] | 62.2964
9 | O=C(CN1CCC2(CC1)CN(C(=O)CO)c1ccccc12)Nc1ccc(F)c(Cl)c1 [CBK131509] | 89.413
10 | C[C@H](Nc1nc(-c2cccc(-c3ccccc3)c2)cnc1N)c1ccccc1 [CBK063752] | 131.606
11 | CC1CCN(Cc2ccc(-c3ccc(CC(=O)NCCc4ccc(O)cc4)cn3)cc2)CC1 [CBK158384] | 87.5896
12 | Cc1cccc2c3c([nH]c12)C1(CCN(CCCC#N)CC1)NCC3 [CBK039818] | 167.385
13 | CC(C)(C)NC(=O)Cn1cncc1-c1ccc2c(c1)CC(C)(C)O2 [CBK281980] | 101.61
14 | CCN1CCN(c2ccc(NC(=O)c3ccc(OCc4ccccc4)cc3)cc2Cl)CC1 [CBK266683] | 182.398
15 | Cc1cc(C)cc(NC(=O)c2ccccc2NS(=O)(=O)c2cccc(Cl)c2)c1 [CBK113887] | 85.0564
16 | O=C(c1cccc(-c2cc3ccccc3oc2=O)c1)N1CCN(c2ccc([N+](=O)[O-])cc2Cl)CC1 [CBK269704] | 101.246
17 | O=C(O)c1ccccc1CSc1ccccn1 [CBK270213] | 122.766
18 | Fc1ccc(-c2cccc(Nc3ccc(Oc4ccccc4)cc3)n2)cc1Cl [CBK037699] | 155.181
19 | COc1cccc2sc(NC(=O)c3ccc4ncsc4c3)nc12 [CBK287365] | 134.39
20 | COc1ccc(C)cc1N1CCCN(c2cc(C)ccc2OC)C1=O [CBK006937] | 136.659
21 | Cc1ccc(NC(=O)COc2ccccc2/C=C/C(=O)O)cc1C [CBK287026] | 110.87
22 | COc1ccc(Cl)cc1NC(=O)CCN1CCN(C)CC1 [CBK278177C] | 100
23 | CCNC(=O)c1ccc(-c2ccc(C(=O)N(C)C)cc2)nc1 [CBK158361] | 114.72
24 | S=C1C=C(c2ccccc2)Nc2ccccc2N1 [CBK288438] | 86.4165
25 | CCCCn1c(SCCC(=O)Nc2ccccc2C(=O)c2ccccc2)n[nH]c1=O [CBK296693] | 129.437

Row | SMILES | % of control remaining [%]
26 | O=C(NC(c1ccc(-c2ccccc2)cc1)c1cnccn1)C1CCN(C/C=C/c2ccccc2)CC1 (centres unmarked) [CBK147984] | 116.696
27 | CN(CCN1CCCCC1)C(=O)c1cc2ccc(N(C)C)cc2[nH]1 [CBK281830] | 141.893
28 | CC(=O)Nc1ccccc1-c1nc2ccccc2o1 [CBK287568] | 163.739
29 | Cc1ccc(-c2cc(C(=O)N(C)CC3(C)COC3)[nH]n2)cc1 [CBK281717] | 133.728
30 | Cc1ccc(C2(O)CCN(Cc3c(C)nc4sccn34)CC2)cc1 [CBK282734] | 116.857
31 | O=C(O)CSc1nc(O)c2c(-c3ccccc3)csc2n1 [CBK268067] | 107.953
32 | COc1ccc(C(=O)N2CCC3(CCCN(C(=O)c4cscn4)C3)C2)cc1OC (centres unmarked) [CBK131659] | 108.223
33 | O=C(O)Cn1cc(C(C(=O)O)N2CCN(c3ccccc3)CC2)c2ccccc21 (centres unmarked) [CBK286625] | 151.621
34 | CC(C)(C)c1cc(C(c2ccccc2O)N2CCOCC2)cc(C(C)(C)C)c1O (centres unmarked) [CBK262998] | 51.2941
35 | Cc1ccnc(Nc2nc3ccccc3o2)n1 [CBK022772] | 100
36 | Cc1ccc(C)c2c1CCCC2N1CCC(NS(C)(=O)=O)CC1 (centres unmarked) [CBK304038] | 100
37 | c1csc(CN2CCC(c3cc4nccnc4[nH]3)CC2)c1 [CBK281520] | 143.684
38 | CSc1ncc(CNC(=O)CC2CCc3ccccc32)n1C (centres unmarked) [CBK307450] | 109.805
39 | COc1cc(CN2CCC3(CC2)CN(S(C)(=O)=O)c2ccccc23)cc(OC)c1OC [CBK126669] | 133.302
40 | CC(C)(C)c1ccc(S(=O)(=O)N2CCNC(=O)C2)cc1 [CBK051238] | 110.752
41 | O=S1(=O)N=C(N2CCN(Cc3ccc4c(c3)OCO4)CC2)c2ccccc21 [CBK266064] | 114.429
42 | CC(C)(C)C(=O)N[C@H]1CO[C@H]2[C@@H]1OC[C@@H]2Nc1nccc(C2CCCC2)n1 [CBK289530] | 105.825
43 | Cc1nc(C)n(CC(=O)N[C@H]2C3CCCCC3[C@@H]2c2ccccc2)n1 (some centres unmarked) [CBK285128] | 136.513
44 | CCOC(=O)C(C)n1nc(CC)n2c(cc3ccsc32)c1=O (centres unmarked) [CBK284127] | 122.137
45 | O=C(O)C1CC=CCC1C(=O)NCc1ccc(N2CCCC2=O)cc1 (centres unmarked) [CBK270081] | 144.27
46 | CN(CCN1CCCCC1)C(=O)C1Cc2cc(Cl)ccc2O1 (centres unmarked) [CBK282640] | 138.412
47 | O=C(c1ccc2[nH]c(=O)[nH]c2c1)N1CCC2(CCN(C(=O)c3cc(F)c(F)cc3F)C2)C1 (centres unmarked) [CBK131407] | 95.0915
48 | Cc1nnnn1-c1ccc(CC(=O)N2CCc3sccc3C2c2ccco2)cc1 (centres unmarked) [CBK285705] | 114.126
49 | Cc1ccc(Cl)cc1NC(=O)CCn1cnc2ccccc2c1=O [CBK270103] | 125.105
50 | O=C(c1ccco1)N1CCN(c2cc(-c3cccnc3)ncn2)CC1 [CBK037833] | 204.613

3 records picked at random from those above, as already listed:
Row | SMILES | % of control remaining [%]
44 | CCOC(=O)C(C)n1nc(CC)n2c(cc3ccsc32)c1=O (centres unmarked) [CBK284127] | 122.137
49 | Cc1ccc(Cl)cc1NC(=O)CCn1cnc2ccccc2c1=O [CBK270103] | 125.105
28 | CC(=O)Nc1ccccc1-c1nc2ccccc2o1 [CBK287568] | 163.739
